Measured values as given in PubChem BioAssay AID2685 (National Center for Advancing Translational Sciences (NCATS), 2010).
The list shows a part of the results. The main result of the screen is listed elsewhere. These columns were measured beside it and carry no call. Compounds called inactive in the main read-out are mostly missing here. Potencies come from curve fits of mixed quality, noted in brackets.

Assay: qHTS Assay for Lipid Storage Modulators in Drosophila S3 Cells;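 on cell number change: cells counted by Cell Tracker Red CMTPX staining in the red channel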
Details: BODIPY lipid droplet fluorescence, 18-24 h; for cell number change: measured here: cell count max response, cells fed with added oleic acid
Outline: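 Drosophila S3 cells got compounds at several concentrations plus oleic acid (400 uM solution). Laser-scanning cytometry with 488 nm excitation read lipid droplets at 500-530 nm and cells at 575-640 nm. Percent activity was relative to 20 uM Triacsin C.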

[1] = measured here: lipid fluorescence (Fed channel) AC50, cells fed with added oleic acid
[2] = measured here: cell number channel AC50, cells fed with added oleic acid

SMILES	AC50 [1]	cell number change [%]	AC50 [2]
O=C(c1ccc([N+](=O)[O-])o1)N1CCN(Cc2ccccc2)CC1	20.6 µM [falling, partial curve]		
CCNC(=S)NNC(=O)c1cc(-c2ccc(OC)cc2)nc2ccccc12		-3.9	
CC1(C)CC(=O)C2=C(C1)Nc1ccccc1NC2c1ccc(F)cc1 (stereo not given)		-22.3	
COc1ccc(-n2c(C)cc(/C=C3\C(=N)N4N=C(CC(=O)N5CCOCC5)SC4=NC3=O)c2C)c(OC)c1	29.1 µM [falling, single point]	-3.36	
CCOc1ccc(NC(=O)N2CCCC2C(=O)NCc2ccco2)cc1 (stereo not given)	0.231 µM [rising, full curve, poor fit]	10.5	
CCOc1cccc(C(=O)Nc2cc(C)ccc2NC(=O)c2ccco2)c1	16.4 µM [rising, single point]	5.52	
CCC(=O)Nc1cc(=O)[nH]c2nc(-c3ccc(Cl)cc3)nn12	0.0461 µM [rising, full curve]		
O=C(N/N=C/C1CC2CCC1C2)C1CC1 (stereo not given)	8.2 µM [rising, partial curve, poor fit]	16.4	
Cc1ccc(C(=O)N/C(=C/c2cccs2)C(=O)NCCc2c[nH]c3ccccc23)cc1	0.164 µM [rising, full curve, poor fit]	4.83	
CN(c1ccccc1)S(=O)(=O)c1cccc(NC(=O)CSc2ncc(C(F)(F)F)cc2Cl)c1	29.1 µM [falling, single point]	20.2	
COc1ccc(C2Nc3ccccc3C(=O)N2NS(C)(=O)=O)cc1OC (stereo not given)	0.103 µM [falling, full curve, poor fit]	-2.71	
CCOC(=O)C1CCCN(C(=O)CN2C(=O)COc3ccc(C(C)(C)C)cc32)C1 (stereo not given)		-12.5	
CCOC(=O)c1ccc(NC(=O)Cn2ncc(Cl)c(Cl)c2=O)cc1	20.6 µM [rising, single point]	-14.2	
O=C(O)CC1S/C(=N/N=C/c2ccc(-c3ccc(Cl)cc3[N+](=O)[O-])o2)NC1=O (stereo not given)		-5.39	
CC(C)(C)Nc1nc(Cl)nc(NCc2ccccc2)n1	6.51 µM [rising, single point]	26.3	
O=C1CCC/C(=N\NC(=O)c2ccc(CSc3cccc4cccnc34)cc2)C1		-67.5	
Cc1ccc(-n2cnc3sc(C)c(C)c3c2=O)cc1	7.31 µM [rising, single point]	-1.59	0.731 µM [rising, single point]
COc1ccc(C(=O)NCc2nnc(SCC(=O)NC3CCCCC3)n2C)cc1	29.1 µM [rising, partial curve, poor fit]	34.2	14.6 µM [rising, partial curve, poor fit]
CCOc1ccc(C(C)NC(=O)Cc2ccccc2F)cc1OCC (stereo not given)	6.51 µM [falling, single point]	54.9	
C/C(=N\Nc1nc(C)cc(-c2ccccc2)n1)c1ccc(O)cc1	29.1 µM [falling, single point]	-7	
Cc1ccc(NC(=O)CCN2CC(C)OC(C)C2)cc1 (stereo not given)	6.51 µM [rising, single point]	14.2	

SMILES	AC50 [1]	cell number change [%]	AC50 [2]
COCc1cc(Sc2ccc(OC)cc2)nc(-c2ccccc2)n1	23.1 µM [rising, partial curve]	89.5	20.6 µM [rising, single point]
CC(N)C12CC3CC(CC(O)(C3)C1)C2 (stereo not given)	5.17 µM [falling, single point]	-65.3	7.31 µM [falling, partial curve]
CCOc1ccc(NC(=O)CSc2nc3cccnc3n2CCOC)cc1	2.91 µM [rising, single point]		
Cc1coc2c1c(C)cc1oc(=O)c(CC(=O)NCCCN3CCCC3=O)c(C)c12	7.31 µM [falling, partial curve, poor fit]	-24.8	
CSc1ccc(/C=C/C(=O)c2ccc(NC(=O)Cc3ccccc3)cc2)cc1	29.1 µM [falling, single point]	10.5	
CC(C)CNc1c(N)c(=O)oc2ccccc12	6.51 µM [rising, single point]	44.2	7.31 µM [rising, partial curve]
COc1ccc(NC(=O)C2CCCN(S(=O)(=O)c3ccc4c(c3)oc(=O)n4C)C2)cc1OC (stereo not given)		40.5	29.1 µM [rising, single point]
CC1=CC(=C(C#N)C#N)C=C(C)N1CCN1CCN(C(=O)Nc2cccc(Cl)c2)CC1	14.6 µM [falling, single point]	-8.49	
O=C(CCNC(=O)c1ccc(Br)cc1)Nc1ccccc1N1CCOCC1			1.46 µM [rising, partial curve]
CCCCNC(=O)[C@@H]1CCCN1S(=O)(=O)c1cccc2cccnc12	0.731 µM [rising, full curve, poor fit]	22.1	
CCC(=O)NC(=S)NNC(=O)c1ccccc1[N+](=O)[O-]	0.13 µM [falling, full curve, poor fit]	-18.5	
O=C1NC(=S)N/C1=C/c1cccc2ccccc12	2.91 µM [falling, full curve]	-9.72	
Cc1ccc(-c2nn(C)c(=O)c3ccccc23)cc1CN1CCOCC1	2.91 µM [rising, partial curve]	-9.42	0.0731 µM [falling, full curve, poor fit]
COc1cc(NC(=O)c2cccc(C)c2)ccc1NC(=O)c1cc2ccccc2o1	29.1 µM [rising, single point]	-19.4	
Clc1ccc(-n2cccc2)cn1		21.6	
COc1ccc(C(=O)NNC(=O)COc2ccc(Cl)cc2C)cc1S(=O)(=O)N1CCOCC1		49.5	
CN(C)C(=O)c1ccccc1-c1ccccc1		-18.5	
Cc1ccc(Nc2nc(C)cc(C)c2C(N)=O)cc1	9.2 µM [rising, partial curve]	100	8.2 µM [rising, partial curve]
COc1ccccc1NS(=O)(=O)c1ccc(NC(=O)Cc2cccs2)cc1	5.8 µM [rising, full curve, poor fit]	19.9	
N#C/C(=C\c1cccnc1)c1ccccn1		-2.78	
CCc1ccc(Nc2ncnc3nc[nH]c23)cc1	6.51 µM [rising, single point]		

Reformatted in CSV form: 3 of the compounds above.
SMILES,AC50 [1],cell number change [%],AC50 [2]
CSc1ccc(/C=C/C(=O)c2ccc(NC(=O)Cc3ccccc3)cc2)cc1,"29.1 µM [falling, single point]",10.5,
CC(C)CNc1c(N)c(=O)oc2ccccc12,"6.51 µM [rising, single point]",44.2,"7.31 µM [rising, partial curve]"
COc1ccc(NC(=O)C2CCCN(S(=O)(=O)c3ccc4c(c3)oc(=O)n4C)C2)cc1OC (stereo not given),,40.5,"29.1 µM [rising, single point]"

Next results follow:

SMILES	AC50 [1]	cell number change [%]	AC50 [2]
O=C(CCNS(=O)(=O)c1ccccc1)NNC(=O)COc1ccc(Cl)cc1		6.22	
Cc1nc(=O)c(-c2ccccc2)c(C)n1CCCO	1.16 µM [falling, partial curve]	-76.5	6.51 µM [falling, full curve]
COCCCNc1nc(SCc2ccccc2)nc2sc3c(c12)CCC3		-15.5	
O=C(NCc1ccc(F)cc1)C(=O)NCC1OCCCN1S(=O)(=O)c1cccs1 (stereo not given)	12.6 µM [rising, partial curve]	44.2	0.794 µM [rising, full curve, poor fit]
COc1cc(NC(=S)N2CCN(S(=O)(=O)c3ccc(C)cc3)CC2)cc(OC)c1	29.1 µM [rising, single point]	29.8	3.66 µM [rising, full curve, poor fit]
O=C(NCc1cc(F)cc(C(F)(F)F)c1)C1CCC(=O)N(C2CCCC2)C1 (stereo not given)	29.1 µM [falling, single point]		
COc1cccc(N2CC(C)Cn3c2nc2c3c(=O)n(CCN3CCOCC3)c(=O)n2C)c1 (stereo not given)	20.6 µM [rising, single point]	20.9	
O=c1oc2ccc(C#CC3(O)CCCCC3)cc2cc1-n1cc(C2(O)CCCCC2)nn1	0.116 µM [rising, full curve, poor fit]	-1.24	
COc1ccccc1N1CCN(C(=O)CNS(=O)(=O)c2ccc(Br)s2)CC1	29.1 µM [rising, single point]	14	
COC(F)(C(=O)Nc1ccc2c(c1)C(=O)NC2=O)C(F)(F)F (stereo not given)	32.6 µM [falling, single point]	-12	
CN(CC(=O)Nc1ccccc1N1CCOCC1)CC(=O)Nc1ccc(F)c(F)c1F	29.1 µM [rising, single point]	35.3	
O=C(CN1C(=O)N/C(=C\c2ccccc2OCc2ccc(C(=O)O)cc2)C1=O)Nc1ccccc1F		-26.7	
Cc1cc(OCC(=O)NCCCn2ccnc2)c2c(C)cc(=O)oc2c1		34	29.1 µM [rising, single point]
Clc1ccccc1CSC1=NCCN1	29.1 µM [falling, single point]	-18.2	
O=C(N/N=C/c1ccncc1)c1nn(Cc2ccccc2)c(=O)c2ccccc12		49.4	1.3 µM [rising, partial curve]
CCc1ccccc1NC(=O)c1onc(C)c1Cl	0.13 µM [rising, full curve, poor fit]	11.9	
O=C(CCCc1nc(-c2ccccc2)no1)NC1CCCCC1		27.6	
COC(=O)c1cc(=O)n(CCc2ccccc2F)c(=Nc2ccc(F)c(Cl)c2)s1	2.31 µM [rising, single point]		
Cc1cc(C)c2cc(C#N)c(SCC(=O)NCc3ccco3)nc2c1	2.91 µM [rising, partial curve]	-2.23	
CCc1nnc(N2C(=O)c3cccc4cccc(c34)C2=O)s1	0.58 µM [rising, single point]		2.06 µM [rising, partial curve]
O=C1Nc2ccccc2C(=O)N2[C@H](c3ccccc3)[C@@H]3C(=O)N(Cc4ccccc4)C(=O)[C@@H]3[C@H]12	0.731 µM [rising, single point]		
